Where “and” joins values, the source holds several entries; their conditions need not be identical. Equal values may be shown once. Some of these results come from one statement about several compounds together. The name of at least one read-out is uncertain.
Columns and labels:
[1] = system: KB-8-5 cells; assay: MTS cytotoxicity test with KB-8-5 cells (moderate P-glycoprotein); type: cell-based, human; details: IC50 on KB 8.5 cells/IC50 on KB cells
From the text: Human cancer cell lines, unless otherwise noted, are obtained from the American Type Culture Collection (Rockville, Md.). The following drug-sensitive parental cell lines, and their derived drug-resistant counterparts, are obtained from the originators as listed: (a) S1 (parental line from a subclone of human colon carcinoma line LS174T) and derived S1-M1-3.2 (herein called S1-M1) which expresses the MXR drug transporter protein, are provided by Dr. L. Greenberger, Wyeth Research (Rabindran, S. K., He, H., Singh, M., Brown, E., Collins, K. I., Annable, T., and Greenberger, L. M. Reversal of a novel multidrug resistance mechanism in human colon carcinoma cells by fumitremorgin C. Cancer Res., 58:5850-5858,1998); (b) parental HL-60 human promyelocytic leukemia line and derived HL-60/ADR, which expresses the MRP1 drug transporter protein, are provided by Dr. M. Center, University of Kansas (McGrath, T., and Center, M. S. Adriamycin resistance in HL60 cells in the absence of detectable P-glycoprotein. Biochem. Biophys. […] J. Biol. Chem., 261: 7762-7770,1986) via Dr. L. Greenberger, Wyeth Research.
The assay, which is sold in kit form by Promega (Madison, Wis.; CellTiter 96 AQueous Non-Radioactive Cell Proliferation Assay), is based on the conversion by viable cells, but not by dead cells, of the tetrazolium salt, MTS (3-(4,5-dimethylthiazol-2-yl)-5-(3-carboxymethoxyphenyl)-2-(4-sulphophenyl)-2H-tetrazolium, inner salt), into a water-soluble colored formazan which is detected by spectrophotometry. Compounds are tested at nine concentrations, in order to determine IC50 values. For the test procedure, cells are harvested by trypsinization (or, in the case of non-adherent cells, by simple resuspension), washed, counted and distributed to wells of 96-well flat-bottom microtiter plates at 1000 cells per well in 200 μL of medium. In addition, one row of wells on a separate plate received cells as above (“time 0” plate). All plates are incubated at 37° in humidified 5% CO2 in air for about 24 hr.
On day 2, compounds for test are diluted and added to wells. Compounds are dissolved in DMSO at 10 mg/mL. For each compound, nine serial 2-fold dilutions are prepared in DMSO. Ten μL of each dilution in DMSO is transferred to 100 μL of medium, mixed well, and then 5 μL of this dilution is transferred in quadruplicate to wells containing cells. […] Plates are returned to the incubator for three days. At the time of drug addition to the experimental plates, the MTS assay is run on the “time 0” plate. This produced the “time 0 MTS value” which is related to the number of viable cells per well at the time of drug addition.
After three days of culture with test compounds (day 5 overall), the MTS assay is done on all wells of the experimental plates. The absorbance values of the quadruplicate sample wells are averaged and divided by the average of the “time 0” values. […] The nine values for each compound are plotted against concentration, and the concentration that produced a relative color yield half way between the maximum and minimum is taken as the IC50 value.
The KB lines express different amounts of the P-glycoprotein (MDR1) membrane pump which produces resistance to the action of many cytotoxic compounds, including paclitaxel and vincristine. The parental KB line expresses no P-glycoprotein, KB-8-5 expresses moderate levels of the protein, and KB-V1 expresses very high levels.

[2] = system: KB-V1 cells; assay: MTS cytotoxicity test with KB-V1 cells (very high P-glycoprotein); type: cell-based, human; details: IC50 on KB VI cells/IC50 on KB cells
From the text: Human cancer cell lines, unless otherwise noted, are obtained from the American Type Culture Collection (Rockville, Md.). […]
The assay, which is sold in kit form by Promega (Madison, Wis.; CellTiter 96 AQueous Non-Radioactive Cell Proliferation Assay), is based on the conversion by viable cells, but not by dead cells, of the tetrazolium salt, MTS (3-(4,5-dimethylthiazol-2-yl)-5-(3-carboxymethoxyphenyl)-2-(4-sulphophenyl)-2H-tetrazolium, inner salt), into a water-soluble colored formazan which is detected by spectrophotometry. […] For the test procedure, cells are harvested by trypsinization (or, in the case of non-adherent cells, by simple resuspension), washed, counted and distributed to wells of 96-well flat-bottom microtiter plates at 1000 cells per well in 200 μL of medium. […]
After three days of culture with test compounds (day 5 overall), the MTS assay is done on all wells of the experimental plates. The absorbance values of the quadruplicate sample wells are averaged and divided by the average of the “time 0” values. […]

Structure (SMILES): C[C@H](Nc1c(-c2c(F)cc(OCCCN(C)C)cc2F)c(Cl)nc2ncnn12)C(F)(F)F [Example 1, 5-Chloro-6-{4-[3-(dimethylamino)propoxy]-2,6-difluorophenyl}-N-[(1S)-2,2,2-trifluoro-1-methylethyl][1,2,4]triazolo[1,5-a]pyrimidin-7-amine]
- Ratio 8.5/KB [1]: < 2

Structure (SMILES): CN(C)CCCOc1cc(F)c(-c2c(Cl)nc3ncnn3c2NCC(F)(F)F)c(F)c1.Cl [Example 4a, 5-Chloro-6-{4-[3-(dimethylamino)propoxy]-2,6-difluorophenyl}-N-(2,2,2-trifluoroethyl)[1,2,4]triazolo[1,5-a]pyrimidin-7-amine Hydrogen chloride Salt]
- Ratio 8.5/KB [1]: < 2 and 2.5

Structure (SMILES): C[C@H](Nc1c(-c2c(F)cc(OCCCO)cc2F)c(Cl)nc2ncnn12)C(F)(F)F [Example 20, 3-[4-(5-Chloro-7-{[(1S)-2,2,2-trifluoro-1-methylethyl]amino}[1,2,4]triazolo[1,5-a]pyrimidin-6-yl)-3,5-difluorophenoxy]propan-1-ol]
- Ratio 8.5/KB [1]: < 2 and 1.2

Structure (SMILES): C[C@H](Nc1c(-c2c(F)cc(OCCCN(C)C)cc2F)c(Br)nc2ncnn12)C(F)(F)F [Example 25, 5-Bromo-6-{4-[3-(dimethylamino)propoxy]-2,6-difluorophenyl}-N-[(1S)-2,2,2-trifluoro-1-methylethyl][1,2,4]triazolo[1,5-a]pyrimidin-7-amine]
- Ratio VI/KB [2]: < 3 and 2.8
- Ratio 8.5/KB [1]: < 2 and 1.1

Structure (SMILES): OCCCOc1cc(F)c(-c2c(Cl)nc3ncnn3c2C2CCCCCC2)c(F)c1 [Example 30, 3-[4-(5-Chloro-7-cycloheptyl[1,2,4]triazolo[1,5-a]pyrimidin-6-yl)-3,5-difluorophenoxy]propan-1-ol]
- Ratio 8.5/KB [1]: < 2 and 1.8

Structure (SMILES): CNCCCOc1cc(F)c(-c2c(Cl)nc3ncnn3c2C2CCCCCC2)c(F)c1.O=C(O)C(F)(F)F [Example 32, 3-[4-(5-Chloro-7-cycloheptyl[1,2,4]triazolo[1,5-a]pyrimidin-6-yl)-3,5-difluorophenoxy]-N-methylpropan-1-amine trifluoroacetic acid salt]
- Ratio 8.5/KB ([1]; trifluoroacetic acid salt): < 2 and 1.4
